## Screening data, single-dose tests

From ChEMBL document CHEMBL3988442, “University of Dundee, Small-Polar-MMV Screening Library” (2021).

T. brucei: 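Whole-parasite assay of Trypanosoma brucei over 72 hours; the read-out is not stated. Compounds at 30 µM. Higher reads as stronger inhibition (inferred: compounds with an IC50 in retests scored well above the rest). Values scatter widely below zero; nearly all retest evidence comes from the higher of the two concentrations used. Of about 64,000 compounds tested this way, about 940 (1.5%) reached 50% or more in at least one test.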
Toxoplasma: 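Assay of Toxoplasma gondii numbers, read through their beta-galactosidase reporter with a colour substrate. Concentration: 10 µM. Higher reads as fewer parasites (inferred from which compounds were picked for retests). Size under these conditions: about 67,000 compounds, about 260 of them at 50% or above in at least one test.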

Each number is a percent effect as filed. The controls that fix the scale are not given in the record; negative values are as filed. The compounds are a random part of those screened.

COc1ccncc1NC(=O)C1(c2ccccc2)CC1 gave T. brucei: -11.2%; Toxoplasma: 6.016%. Cc1ccc(-c2nc(CNC3CCc4ncnn4C3)co2)c(C)c1 (stereo not given) read T. brucei: 30.05%; Toxoplasma: 2.012%. Cc1nccc(C2CN(Cc3cc[nH]n3)CCO2)n1 (stereo not given) gave T. brucei: 20.53%; Toxoplasma: -4.933%. COc1ccc(C2CNCCN2C(=O)c2nccc3ccccc23)cc1 (stereo not given) gave T. brucei: -17.93%; Toxoplasma: 12.04%. Cc1ncsc1C(=O)NC1CCN(Cc2ccc(C#N)cc2)CC1 gave T. brucei: 44.69%; Toxoplasma: 12.49%.

For CCC(C)C(=O)NCc1c(C)nn(C)c1N1CCCN(C)CC1 (stereo not given) the result was T. brucei: -0.6894%; Toxoplasma: 16.33%. With Cc1cc(C)n(-c2ccc(C(=O)NCc3cncn3CC(C)C)cc2)n1 the screen gave T. brucei: 3.186%; Toxoplasma: 11.27%. With Cn1ccnc1CN1CCC2(COCCN(Cc3ccsc3)C2)C1 (stereo not given) the screen gave T. brucei: 61.78%; Toxoplasma: 4.501%. CC(Cn1cccn1)NC(=O)NCc1cccs1 (stereo not given) read T. brucei: 3.574%; Toxoplasma: -4.972%. COC(=O)c1ccc(NC(C)c2ccc3c(c2)NC(=O)CO3)nn1 (stereo not given) read T. brucei: -2.65%; Toxoplasma: -0.363%.

O=C(CNc1cc(-n2cnnn2)ccc1F)Nc1ccccc1Cl read T. brucei: -21.6%; Toxoplasma: 4.777%. Cc1ccc(C(=O)NCc2cccnc2N(C)C)s1 read Toxoplasma: 7.644%. COCCN1CCC(NC(=O)C(C)C)CC1 read T. brucei: -44.22%; Toxoplasma: -14.88%. With Cc1cc(-c2cnc(N3CCCC3)nc2C(C)C)on1 the screen gave T. brucei: -15.96%; Toxoplasma: -18.19%. CSCCNC(=O)c1cc(Br)cn1C(C)C read T. brucei: -43.03%; Toxoplasma: 1.391%.

CCOCCC1(CNC(=O)c2ccsc2)CCC1 read T. brucei: -8.804%; Toxoplasma: 1.815%. With CCc1sc(C(=O)Nc2cnn(CC(N)=O)c2)cc1C the screen gave T. brucei: -32.1%; Toxoplasma: 2.537%. Result for O=C(O)C(F)(F)F.O=C(c1ccccc1)N1CCCn2c(CN3CCCCC3)nnc2C1 was T. brucei: -24.02%; Toxoplasma: 0.9613%. CCN(CC)C(CNCc1ccc(O)cc1)c1ccco1 (stereo not given) gave T. brucei: 9.508%; Toxoplasma: -2.984%. Result for COc1c(C(=O)NC(C)Cc2ccccc2Cl)c(C)nn1C (stereo not given) was T. brucei: -87.04%; Toxoplasma: -15.26%.

CC1COCCN1Cc1nc(-c2ccc(F)cc2)no1 (stereo not given) read T. brucei: -10.28%; Toxoplasma: -14.88%. For Cn1ccnc1-c1ccc(NCC2COCCO2)nn1 (stereo not given) the result was T. brucei: -29.94%; Toxoplasma: -8.344%. With Cc1cc(C(F)(F)F)nc(CCNC(C)Cn2cncn2)n1 (stereo not given) the screen gave T. brucei: -36.84%; Toxoplasma: 7.449%.

Repeated from the top, 2 entries:

* COc1ccncc1NC(=O)C1(c2ccccc2)CC1 | T. brucei: -11.2%; Toxoplasma: 6.016%
* Cc1ccc(-c2nc(CNC3CCc4ncnn4C3)co2)c(C)c1 (stereo not given) | T. brucei: 30.05%; Toxoplasma: 2.012%